Results are given in words; binding and its absence hold for the method and conditions named. In cells and extracts the contact can be indirect. Some entries that bind do so weakly or less than the wild type.
Assays:
[1] = molecular target: human α2A adrenoceptor fused to Rluc (human) (UniProt P08913); experiment: FRET or BRET; BRET saturation in intact HEK-293T cells: constant amount of cDNA of the Rluc-fused receptor, increasing amounts of cDNA of the YFP-fused receptor; coelenterazine H 5 μM; HBSS with 0.1% glucose; single-phase saturation fit
[2] = molecular target: human α1A adrenoreceptor fused to Rluc (human) (UniProt P35348); experiment: as above
[3] = molecular target: human α1A adrenoreceptor fused to YFP (human) (UniProt P35348); experiment: FRET or BRET; ligand-induced BRET between β-arrestin-2-Rluc and α1AR-YFP in intact HEK-293T cells co-transfected with non-fused D4.4R or D4.7R; read 7 min after drug

Amino acid sequences for entries named in this document (tags omitted).
UniProt P08913: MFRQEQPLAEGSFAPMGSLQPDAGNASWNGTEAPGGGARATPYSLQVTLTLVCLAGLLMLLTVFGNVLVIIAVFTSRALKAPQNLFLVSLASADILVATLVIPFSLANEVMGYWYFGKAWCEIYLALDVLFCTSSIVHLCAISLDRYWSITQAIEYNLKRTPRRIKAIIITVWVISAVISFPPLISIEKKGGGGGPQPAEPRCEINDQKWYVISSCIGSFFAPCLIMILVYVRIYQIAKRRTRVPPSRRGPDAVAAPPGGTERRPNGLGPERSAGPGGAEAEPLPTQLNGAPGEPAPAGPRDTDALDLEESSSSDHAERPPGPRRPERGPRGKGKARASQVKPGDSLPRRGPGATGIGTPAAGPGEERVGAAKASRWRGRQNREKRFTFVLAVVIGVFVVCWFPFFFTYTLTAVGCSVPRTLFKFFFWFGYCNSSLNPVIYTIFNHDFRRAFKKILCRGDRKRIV
UniProt P35348: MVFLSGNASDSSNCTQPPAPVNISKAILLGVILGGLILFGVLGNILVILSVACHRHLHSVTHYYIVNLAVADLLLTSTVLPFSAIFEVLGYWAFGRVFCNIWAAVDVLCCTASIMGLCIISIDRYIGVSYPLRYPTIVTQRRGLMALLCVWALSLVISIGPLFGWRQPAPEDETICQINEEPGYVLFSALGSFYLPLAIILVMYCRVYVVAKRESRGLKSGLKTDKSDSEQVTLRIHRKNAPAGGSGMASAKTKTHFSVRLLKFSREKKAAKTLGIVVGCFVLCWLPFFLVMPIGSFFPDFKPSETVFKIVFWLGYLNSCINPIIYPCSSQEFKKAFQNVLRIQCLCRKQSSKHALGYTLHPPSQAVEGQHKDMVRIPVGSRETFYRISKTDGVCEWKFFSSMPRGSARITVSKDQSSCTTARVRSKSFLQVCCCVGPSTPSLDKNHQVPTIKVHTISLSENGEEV
UniProt P32121: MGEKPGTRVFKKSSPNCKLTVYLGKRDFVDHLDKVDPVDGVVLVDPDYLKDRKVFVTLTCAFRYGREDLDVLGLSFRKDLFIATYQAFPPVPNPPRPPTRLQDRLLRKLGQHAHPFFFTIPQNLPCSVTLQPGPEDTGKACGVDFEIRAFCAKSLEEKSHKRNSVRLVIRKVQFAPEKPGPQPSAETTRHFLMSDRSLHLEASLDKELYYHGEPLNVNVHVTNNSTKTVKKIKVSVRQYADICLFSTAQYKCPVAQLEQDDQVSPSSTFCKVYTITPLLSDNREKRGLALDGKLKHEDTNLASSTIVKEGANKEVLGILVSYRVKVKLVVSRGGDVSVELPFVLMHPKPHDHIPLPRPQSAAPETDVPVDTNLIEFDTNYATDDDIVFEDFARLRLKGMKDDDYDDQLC

Substance: human α1A adrenoreceptor fused to YFP (from UniProt P35348 1-466)
- binding [1]: no binding

Substance: human α2A adrenoceptor fused to YFP (from UniProt P08913 1-465) (receptor)
- binding [2]: no binding

Substance: β-arrestin-2 fused to Rluc (from UniProt P32121 1-409)
- binding [3]: binds

— publication PMC10533593 (Molecular Neurobiology, 2023)
